Laboratory results: publication PMC3983041, “Interplay of the Serine/Threonine-Kinase StkP and the Paralogs DivIVA and GpsB in Pneumococcal Cell Elongation and Division” (PLoS Genetics, 2014)
These are yes or no findings as the source states them, for the method shown. Some results given as binding are weak or reduced against the parent protein; the word gives no strength. Where a sequence is shown, tags or fusion partners need not be part of it.

By UniProt entry, the sequences of proteins in these tests, tags left out.
UniProt A0A0H2ZNE0: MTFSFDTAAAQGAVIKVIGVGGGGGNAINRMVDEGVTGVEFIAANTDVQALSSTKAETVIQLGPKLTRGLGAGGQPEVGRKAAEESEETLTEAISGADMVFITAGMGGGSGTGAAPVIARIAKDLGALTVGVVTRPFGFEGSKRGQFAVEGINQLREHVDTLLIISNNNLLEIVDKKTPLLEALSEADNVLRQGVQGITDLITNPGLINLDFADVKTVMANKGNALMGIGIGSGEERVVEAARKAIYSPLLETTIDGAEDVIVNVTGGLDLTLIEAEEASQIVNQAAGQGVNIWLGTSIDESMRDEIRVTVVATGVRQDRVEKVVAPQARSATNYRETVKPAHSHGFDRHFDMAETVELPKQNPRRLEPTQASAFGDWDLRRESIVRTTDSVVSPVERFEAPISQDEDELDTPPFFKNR

T1: EzrA (bacterial two-hybrid fusion) (Streptococcus pneumoniae) (UniProt Q8DQE5)
T1 sequence: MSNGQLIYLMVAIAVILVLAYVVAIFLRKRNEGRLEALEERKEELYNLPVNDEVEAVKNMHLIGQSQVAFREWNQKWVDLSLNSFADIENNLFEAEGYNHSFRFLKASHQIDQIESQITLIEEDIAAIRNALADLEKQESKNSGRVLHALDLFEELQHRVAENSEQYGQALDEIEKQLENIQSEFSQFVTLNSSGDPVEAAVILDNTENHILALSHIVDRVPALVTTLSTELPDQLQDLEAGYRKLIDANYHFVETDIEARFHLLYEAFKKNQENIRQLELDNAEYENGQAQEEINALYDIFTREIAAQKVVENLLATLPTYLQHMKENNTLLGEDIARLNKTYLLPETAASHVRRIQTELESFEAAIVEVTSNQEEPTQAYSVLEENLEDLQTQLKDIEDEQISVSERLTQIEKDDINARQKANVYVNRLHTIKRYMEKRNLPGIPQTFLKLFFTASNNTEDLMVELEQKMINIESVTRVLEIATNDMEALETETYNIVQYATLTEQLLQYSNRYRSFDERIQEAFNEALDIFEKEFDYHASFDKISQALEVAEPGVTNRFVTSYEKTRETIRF

T2: GpsB (bacterial two-hybrid fusion) (Streptococcus pneumoniae) (UniProt C1CIN3)
T2 sequence: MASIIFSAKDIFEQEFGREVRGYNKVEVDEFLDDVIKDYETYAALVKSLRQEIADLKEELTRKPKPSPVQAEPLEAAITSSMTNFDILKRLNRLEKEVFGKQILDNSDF


What was measured:
[1] = molecular target: T1, EzrA (bacterial two-hybrid fusion) (Streptococcus pneumoniae); experiment: two-hybrid; bacterial two-hybrid (adenylate cyclase T18/T25 fragments fused to the C-terminus), co-transformation in E. coli BTH101, 40 h at 30°C on LB-agar with X-gal and 0.5 mM IPTG; blue coloration indicates positive interactions
[2] = molecular target: T2, GpsB (bacterial two-hybrid fusion) (Streptococcus pneumoniae); experiment: as above

Molecule	binding [1]	binding [2]
FtsZ (bacterial two-hybrid fusion) (from UniProt A0A0H2ZNE0 1-419)	binds	
GpsB (bacterial two-hybrid fusion) (protein, UniProt C1CIN3 1-109) MASIIFSAKDIFEQEFGREVRGYNKVEVDEFLDDVIKDYETYAALVKSLRQEIADLKEELTRKPKPSPVQAEPLEAAITSSMTNFDILKRLNRLEKEVFGKQILDNSDF	binds	
DivIVA (bacterial two-hybrid fusion) (protein, UniProt Q8CWP9 1-262) MPITSLEIKDKTFGTRFRGFDPEEVDEFLDIVVRDYEDLVRANHDKNLRIKSLEERLSYFDEIKDSLSQSVLIAQDTAERVKQAAHERSNNIIHQAEQDAQRLLEEAKYKANEILRQATDNAKKVAVETEELKNKSRVFHQRLKSTIESQLAIVESSDWEDILRPTATYLQTSDEAFKEVVSEVLGEPIPAPIEEEPIDMTRQFSQAEMEELQARIEVADKELSEFEAQIKQEVETPTPVVSPQVEEEPLLIQLAQCMKNQK	binds	binds
